Values quoted from earlier work in patent US20170364630A1, “IDENTIFICATION OF CELLULAR ANTIMICROBIAL DRUG TABLETS THROUGH INTERACTOME ANALYSIS” (Vanderbilt University, priority 2014, published 2017).

Test system: hepatitis C virus (HCV)
Conditions: cell-based quantitative high-throughput screening, He et al. 2015; read-out: EC50, anti-HCV activity

- EC50: 10.5 µM
Structure (SMILES): Cc1ccccc1C(OCCN(C)C)c1ccccc1 (stereo not shown) [orphenadrine]
